Experimental data taken from ChEMBL document CHEMBL1157379, “Transcriptional response of Candida parapsilosis following exposure to farnesol” (2007).
Further values from the same series stand in other lists.

Key:
Assay type in all cases: functional
Candida parapsilosis [1] = assay: Increase in CGD gene ortholog accession number orf19.7032 expression in Candida parapsilosis CLIB214 at 50 uM after 2 hrs by microarray based transcriptional profiling relative to control
Candida parapsilosis [2] = assay: Decrease in CGD gene ortholog accession number orf19.4985 expression in Candida parapsilosis CLIB214 at 50 uM after 2 hrs by microarray based transcriptional profiling relative to control
Candida parapsilosis [3] = assay: Increase in CGD gene ortholog accession number orf19.5247 expression in Candida parapsilosis CLIB214 at 50 uM after 2 hrs by microarray based transcriptional profiling relative to control
Candida parapsilosis [4] = assay: Decrease in ARR3 gene expression in Candida parapsilosis CLIB214 at 50 uM after 2 hrs by microarray based transcriptional profiling relative to control
Candida parapsilosis [5] = assay: Decrease in CGD gene ortholog accession number orf19.479 expression in Candida parapsilosis CLIB214 at 50 uM after 2 hrs by microarray based transcriptional profiling relative to control
Candida parapsilosis [6] = assay: Increase in CGD gene ortholog accession number orf19.6902 expression in Candida parapsilosis CLIB214 at 50 uM after 2 hrs by microarray based transcriptional profiling relative to control
Candida parapsilosis [7] = assay: Increase in CGD gene ortholog accession number orf19.5771 expression in Candida parapsilosis CLIB214 at 50 uM after 2 hrs by microarray based transcriptional profiling relative to control
Candida parapsilosis [8] = assay: Decrease in CGD gene ortholog accession number orf19.2565 expression in Candida parapsilosis CLIB214 at 50 uM after 2 hrs by microarray based transcriptional profiling relative to control
Candida parapsilosis [9] = assay: Increase in CGD gene ortholog accession number orf19.4907 expression in Candida parapsilosis CLIB214 at 50 uM after 2 hrs by microarray based transcriptional profiling relative to control
Candida parapsilosis [10] = assay: Increase in CGD gene ortholog accession number orf19.2288 expression in Candida parapsilosis CLIB214 at 50 uM after 2 hrs by microarray based transcriptional profiling relative to control
Candida parapsilosis [11] = assay: Decrease in CGD gene ortholog accession number orf19.6797 expression in Candida parapsilosis CLIB214 at 50 uM after 2 hrs by microarray based transcriptional profiling relative to control
Candida parapsilosis [12] = assay: Increase in TIF4631 gene expression in Candida parapsilosis CLIB214 at 50 uM after 2 hrs by microarray based transcriptional profiling relative to control
Candida parapsilosis [13] = assay: Decrease in CGD gene ortholog accession number orf19.6602 expression in Candida parapsilosis CLIB214 at 50 uM after 2 hrs by microarray based transcriptional profiling relative to control
Candida parapsilosis [14] = assay: Decrease in CGD gene ortholog accession number orf19.5074 expression in Candida parapsilosis CLIB214 at 50 uM after 2 hrs by microarray based transcriptional profiling relative to control
Candida parapsilosis [15] = assay: Decrease in SFC1 gene expression in Candida parapsilosis CLIB214 at 50 uM after 2 hrs by microarray based transcriptional profiling relative to control
Candida parapsilosis [16] = assay: Increase in ADO1 gene expression in Candida parapsilosis CLIB214 at 50 uM after 2 hrs by microarray based transcriptional profiling relative to control
Candida parapsilosis [17] = assay: Decrease in CGD gene ortholog accession number orf19.6044 expression in Candida parapsilosis CLIB214 at 50 uM after 2 hrs by microarray based transcriptional profiling relative to control
Candida parapsilosis [18] = assay: Decrease in FMP27 gene expression in Candida parapsilosis CLIB214 at 50 uM after 2 hrs by microarray based transcriptional profiling relative to control
Candida parapsilosis [19] = assay: Decrease in CGD gene ortholog accession number orf19.1219 expression in Candida parapsilosis CLIB214 at 50 uM after 2 hrs by microarray based transcriptional profiling relative to control
Candida parapsilosis [20] = assay: Decrease in CGD gene ortholog accession number orf19.4898 expression in Candida parapsilosis CLIB214 at 50 uM after 2 hrs by microarray based transcriptional profiling relative to control
Candida parapsilosis [21] = assay: Decrease in CGD gene ortholog accession number orf19.5180 expression in Candida parapsilosis CLIB214 at 50 uM after 2 hrs by microarray based transcriptional profiling relative to control
Candida parapsilosis [22] = assay: Increase in CGD gene ortholog accession number orf19.5661 expression in Candida parapsilosis CLIB214 at 50 uM after 2 hrs by microarray based transcriptional profiling relative to control
Candida parapsilosis [23] = assay: Increase in SPL1 gene expression in Candida parapsilosis CLIB214 at 50 uM after 2 hrs by microarray based transcriptional profiling relative to control
Candida parapsilosis [24] = assay: Decrease in CGD gene ortholog accession number orf19.6283 expression in Candida parapsilosis CLIB214 at 50 uM after 2 hrs by microarray based transcriptional profiling relative to control
Candida parapsilosis [25] = assay: Increase in RPN1 gene expression in Candida parapsilosis CLIB214 at 50 uM after 2 hrs by microarray based transcriptional profiling relative to control
Candida parapsilosis [26] = assay: Increase in CGD gene ortholog accession number orf19.4931 expression in Candida parapsilosis CLIB214 at 50 uM after 2 hrs by microarray based transcriptional profiling relative to control
Candida parapsilosis [27] = assay: Decrease in CGD gene ortholog accession number orf19.7521 expression in Candida parapsilosis CLIB214 at 50 uM after 2 hrs by microarray based transcriptional profiling relative to control
Candida parapsilosis [28] = assay: Decrease in CGD gene ortholog accession number orf19.4203 expression in Candida parapsilosis CLIB214 at 50 uM after 2 hrs by microarray based transcriptional profiling relative to control
Candida parapsilosis [29] = assay: Decrease in CGD gene ortholog accession number orf19.2194 expression in Candida parapsilosis CLIB214 at 50 uM after 2 hrs by microarray based transcriptional profiling relative to control
Candida parapsilosis [30] = assay: Reduction in CHS5 gene expression in Candida parapsilosis CLIB214 by RT-PCR
Candida parapsilosis [31] = assay: Decrease in DPB2 gene expression in Candida parapsilosis CLIB214 at 50 uM after 2 hrs by microarray based transcriptional profiling relative to control
Candida parapsilosis [32] = assay: Increase in RPS7A gene expression in Candida parapsilosis CLIB214 at 50 uM after 2 hrs by microarray based transcriptional profiling relative to control
Candida parapsilosis [33] = assay: Increase in CGD gene ortholog accession number orf19.1675 expression in Candida parapsilosis CLIB214 at 50 uM after 2 hrs by microarray based transcriptional profiling relative to control
Candida parapsilosis [34] = assay: Decrease in CGD gene ortholog accession number orf19.6100 expression in Candida parapsilosis CLIB214 at 50 uM after 2 hrs by microarray based transcriptional profiling relative to control
Candida parapsilosis [35] = assay: Increase in ALR1 gene expression in Candida parapsilosis CLIB214 at 50 uM after 2 hrs by microarray based transcriptional profiling relative to control
Candida parapsilosis [36] = assay: Increase in YCP4 gene expression in Candida parapsilosis CLIB214 at 50 uM after 2 hrs by microarray based transcriptional profiling relative to control

SMILES: CC(C)=CCC/C(C)=C/CC/C(C)=C/CO [FARNESOL]
- fold change (FC) (Candida parapsilosis [1]): 1.52
- fold change (FC) (Candida parapsilosis [2]): 1.72
- fold change (FC) (Candida parapsilosis [3]): 1.56
- fold change (FC) (Candida parapsilosis [4]): 1.62
- fold change (FC) (Candida parapsilosis [5]): 1.94
- fold change (FC) (Candida parapsilosis [6]): 1.78
- fold change (FC) (Candida parapsilosis [7]): 1.59
- fold change (FC) (Candida parapsilosis [8]): 1.75
- fold change (FC) (Candida parapsilosis [9]): 1.76
- fold change (FC) (Candida parapsilosis [10]): 2.19
- fold change (FC) (Candida parapsilosis [11]): 1.63
- fold change (FC) (Candida parapsilosis [12]): 1.9
- fold change (FC) (Candida parapsilosis [13]): 2.37
- fold change (FC) (Candida parapsilosis [14]): 1.79
- fold change (FC) (Candida parapsilosis [15]): 1.63
- fold change (FC) (Candida parapsilosis [16]): 1.85
- fold change (FC) (Candida parapsilosis [17]): 2.4
- fold change (FC) (Candida parapsilosis [18]): 1.67
- fold change (FC) (Candida parapsilosis [19]): 1.6
- fold change (FC) (Candida parapsilosis [20]): 1.87
- fold change (FC) (Candida parapsilosis [21]): 1.67
- fold change (FC) (Candida parapsilosis [22]): 1.71
- fold change (FC) (Candida parapsilosis [23]): 1.76
- fold change (FC) (Candida parapsilosis [24]): 1.89
- fold change (FC) (Candida parapsilosis [25]): 2.21
- fold change (FC) (Candida parapsilosis [26]): 1.54
- fold change (FC) (Candida parapsilosis [27]): 1.76
- fold change (FC) (Candida parapsilosis [28]): 1.93
- fold change (FC) (Candida parapsilosis [29]): 1.96
- fold change (FC) (Candida parapsilosis [30]): 1.52
- fold change (FC) (Candida parapsilosis [31]): 1.77
- fold change (FC) (Candida parapsilosis [32]): 2.95
- fold change (FC) (Candida parapsilosis [33]): 1.58
- fold change (FC) (Candida parapsilosis [34]): 1.65
- fold change (FC) (Candida parapsilosis [35]): 1.9
- fold change (FC) (Candida parapsilosis [36]): 2.22
